Measured data: PubChem BioAssay AID1224828 (NIAID, 2016)
Purpose: 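Regulators linking TLR4 signalling to p65 nuclear translocation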 (primary screen). Cell system: mouse RAW264.7 G9 macrophage reporter cells (GFP-p65, Tnf promoter-mCherry). Knock-down reagent: siRNA pool against mouse genes, 100 nM. Duration: 2 days siRNA transfection, then 40 min LPS before fixation. Challenge: LPS (Salmonella minnesota R595) at 10 ng/ml. Measured: 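Microscopy ratio of nuclear to perinuclear-ring GFP-p65 signal, scaled to the plate median; gene score is the average of two replicate robust z-scores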. Scale: p65 translocation robust z-score: higher = more nuclear NF-kappaB p65 after LPS than the plate median; nuclear/cytoplasmic p65 ratio: higher = more nuclear NF-kappaB p65. Call rule: 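Called active when z exceeds 3.3 or falls under -1.56 (median of Tlr4 controls), giving activity score of at least 50; no calls for control wells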. Calls: active = hit (p65 shift raised or lowered); inactive = no clear change.
In all, the deposit lists about 17,000 reagents; below is an unselected part. 762 of all reagents (4.5%) count as active. 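Active calls include both raised and lowered p65 entry, mostly lowered; wells with fewer than 50 cells lack a z-score.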 The raw values are shown without normalisation. The numbers tell different reagents against one gene apart. A reagent listed more than once was tested more than once; the source does not tell the runs apart.

| gene | reagent no. | p65 translocation robust z-score | nuclear/cytoplasmic p65 ratio, rep 1 | nuclear/cytoplasmic p65 ratio, rep 2 | low cell count flag | outcome |
| --- | --- | --- | --- | --- | --- | --- |
| Mybl2 | 1 | -0.91 | 1.17 | 1.24 | enough cells to score | inactive |
| Or5h22 | 1 | 0.4 | 1.67 | 1.13 | enough cells to score | inactive |
| Pclo | 1 | -1.55 | 1.23 | 1.12 | enough cells to score | inactive |
| Or1e21 | 1 | – | 1.18 | 1.17 | fewer than 50 cells per well; well left out of scoring | inactive |
| Cbx6 | 1 | -0.67 | 1.45 | 1.72 | enough cells to score | inactive |
| Cbx6 | 1 | -0.12 | 1.39 | 1.44 | enough cells to score | inactive |
| Ccdc28a | 1 | -0.89 | 1.2 | 1.38 | enough cells to score | inactive |
| Tmed2 | 1 | 0.59 | 1.67 | 1.48 | enough cells to score | inactive |
| Cops5 | 1 | 0.72 | 1.49 | 1.55 | enough cells to score | inactive |
| Nudt12 | 1 | 2.38 | 2.1 | 1.86 | enough cells to score | inactive |
| Eppin | 1 | 1.05 | 1.5 | 1.4 | enough cells to score | inactive |
| Noxo1 | 1 | -0.1 | 1.71 | 1.5 | enough cells to score | inactive |
| Zfp846 | 1 | – | 1.31 | 1.17 | fewer than 50 cells per well; well left out of scoring | inactive |
| Cacna1e | 1 | -0.61 | 1.48 | 1.56 | enough cells to score | inactive |
| Or51q1 | 1 | -0.67 | 1.36 | 1.18 | enough cells to score | inactive |
| Trerf1 | 1 | 0.01 | 1.52 | 1.5 | enough cells to score | inactive |
| Acap1 | 1 | 0 | 1.63 | 1.74 | enough cells to score | inactive |
| Hs3st3a1 | 1 | – | 0 | 1.29 | fewer than 50 cells per well; well left out of scoring | inactive |
| Il1rl1 | 1 | 0.12 | 1.44 | 1.44 | enough cells to score | inactive |
| Gatb | 1 | 0.1 | 1.45 | 1.41 | enough cells to score | inactive |
| Uqcrb | 1 | -0.47 | 1.34 | 1.16 | enough cells to score | inactive |
| Gcm2 | 1 | -1.82 | 1.18 | 1.15 | enough cells to score | active |
| Mrps18a | 1 | -2.54 | 1.48 | 1.11 | enough cells to score | active |
| Ccdc88a | 1 | 0.16 | 1.59 | 1.83 | enough cells to score | inactive |
| Ccdc88a | 2 | 0 | 1.43 | 1.53 | enough cells to score | inactive |

5 entries already listed, sorted by “nuclear/cytoplasmic p65 ratio, rep 1”, highest first:
| gene | reagent no. | p65 translocation robust z-score | nuclear/cytoplasmic p65 ratio, rep 1 | nuclear/cytoplasmic p65 ratio, rep 2 | low cell count flag | outcome |
| --- | --- | --- | --- | --- | --- | --- |
| Ccdc88a | 1 | 0.16 | 1.59 | 1.83 | enough cells to score | inactive |
| Mrps18a | 1 | -2.54 | 1.48 | 1.11 | enough cells to score | active |
| Gatb | 1 | 0.1 | 1.45 | 1.41 | enough cells to score | inactive |
| Uqcrb | 1 | -0.47 | 1.34 | 1.16 | enough cells to score | inactive |
| Gcm2 | 1 | -1.82 | 1.18 | 1.15 | enough cells to score | active |

The list goes on:
| gene | reagent no. | p65 translocation robust z-score | nuclear/cytoplasmic p65 ratio, rep 1 | nuclear/cytoplasmic p65 ratio, rep 2 | low cell count flag | outcome |
| --- | --- | --- | --- | --- | --- | --- |
| Atp1b4 | 1 | -0.26 | 1.41 | 1.63 | enough cells to score | inactive |
| Gucy1b2 | 1 | -1.67 | 1.38 | 1.31 | enough cells to score | active |
| Tcn2 | 1 | 0.54 | 1.58 | 1.61 | enough cells to score | inactive |
| Dnai3 | 1 | – | 1.25 | 1.29 | fewer than 50 cells per well; well left out of scoring | inactive |
| Adra2c | 1 | 0.49 | 1.51 | 1.72 | enough cells to score | inactive |
| Stk-ps2 | 1 | -2.25 | 1.09 | 1.04 | enough cells to score | active |
| Prr5 | 1 | -0.23 | 1.54 | 1.63 | enough cells to score | inactive |
| Nlk | 1 | -0.7 | 1.5 | 1.29 | enough cells to score | inactive |
| Rhox5 | 1 | -3.14 | 1.01 | 0.956 | enough cells to score | active |
| Unk | 1 | – | 1.16 | 0.999 | fewer than 50 cells per well; well left out of scoring | inactive |
| Cep85 | 1 | 2.07 | 1.72 | 1.69 | enough cells to score | inactive |
| Cacna1a | 1 | -0.61 | 1.49 | 1.56 | enough cells to score | inactive |
| Zdhhc14 | 1 | -0.88 | 1.37 | 1.09 | enough cells to score | inactive |
| Cry1 | 1 | 0.21 | 1.52 | 1.63 | enough cells to score | inactive |
| Or1n1 | 1 | – | 1.36 | 1.3 | fewer than 50 cells per well; well left out of scoring | inactive |
| Or6z5 | 1 | – | 1.41 | 1.37 | fewer than 50 cells per well; well left out of scoring | inactive |
| Atp5mc1 | 1 | -1.43 | 1.25 | 1.45 | enough cells to score | inactive |
| Acvr1b | 1 | – | 1.62 | 1.4 | fewer than 50 cells per well; well left out of scoring | inactive |
| Vmn1r201 | 1 | -0.17 | 1.44 | 1.14 | enough cells to score | inactive |
| Lonp2 | 1 | – | 1.07 | 1.11 | fewer than 50 cells per well; well left out of scoring | inactive |
| Tfip11 | 1 | – | 1.07 | 1.11 | fewer than 50 cells per well; well left out of scoring | inactive |
| Or4k51 | 1 | -0.21 | 1.57 | 1.37 | enough cells to score | inactive |
| Armc9 | 1 | – | 1.08 | 1.16 | fewer than 50 cells per well; well left out of scoring | inactive |
| Ppl | 1 | – | 1.56 | 1.29 | fewer than 50 cells per well; well left out of scoring | inactive |
| Gcnt1 | 1 | -1.56 | 1.35 | 1.26 | enough cells to score | inactive |
| Fam216a | 1 | – | 1.89 | 0.714 | fewer than 50 cells per well; well left out of scoring | inactive |
| Rbmxl1 | 1 | 0.9 | 1.48 | 1.37 | enough cells to score | inactive |
| Hsf3 | 1 | 0.3 | 1.53 | 1.67 | enough cells to score | inactive |
| Fscn1 | 1 | 0.77 | 1.5 | 1.5 | enough cells to score | inactive |
| Rassf3 | 1 | -0.09 | 1.3 | 1.27 | enough cells to score | inactive |
| Akap7 | 1 | 0.06 | 1.63 | 1.68 | enough cells to score | inactive |
| Npff | 1 | 0.06 | 1.74 | 1.53 | enough cells to score | inactive |
| Adcyap1r1 | 1 | 0.58 | 1.62 | 1.63 | enough cells to score | inactive |
| Arsj | 1 | -0.2 | 1.29 | 1.63 | enough cells to score | inactive |
